Test results as given in doi:10.1101/726224 (bioRxiv, 2019).
Results are given in words; binding and its absence hold for the method and conditions named. Some binding calls cover weakened binding; strength is not graded here. For some assays here: Tags and fused reporters may be left off the sequences shown.

Amino acid sequences for entries named in this document (tags omitted).
UniProt P14635, whole entry: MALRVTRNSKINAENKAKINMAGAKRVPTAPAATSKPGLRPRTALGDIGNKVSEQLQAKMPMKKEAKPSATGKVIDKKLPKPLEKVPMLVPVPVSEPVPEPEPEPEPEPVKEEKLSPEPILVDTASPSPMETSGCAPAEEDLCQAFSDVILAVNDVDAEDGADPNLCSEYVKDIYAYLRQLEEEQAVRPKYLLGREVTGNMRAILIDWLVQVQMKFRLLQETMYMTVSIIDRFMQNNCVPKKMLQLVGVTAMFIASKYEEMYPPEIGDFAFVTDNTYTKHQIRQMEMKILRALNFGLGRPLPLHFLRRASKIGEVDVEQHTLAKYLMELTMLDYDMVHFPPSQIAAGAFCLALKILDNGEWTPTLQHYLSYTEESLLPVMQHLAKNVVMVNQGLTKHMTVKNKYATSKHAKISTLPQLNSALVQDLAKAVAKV

Experiments:
MBP-MAD1^1-92 (human) = molecular target: T1, MBP-MAD1^1-92 (human) (UniProt Q9Y6D9); test: SEC
T1 sequence: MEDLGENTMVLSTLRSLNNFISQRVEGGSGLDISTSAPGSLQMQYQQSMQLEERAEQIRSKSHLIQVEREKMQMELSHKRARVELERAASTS

MBP-MAD1^41-62 (human) = molecular target: T2, MBP-MAD1^41-62 (human) (UniProt Q9Y6D9); test: SEC
T2 sequence: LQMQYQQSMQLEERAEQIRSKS

[1] = molecular target: T3, LacI-MAD1-FL (full length: aa1-718) (human) (UniProt Q9Y6D9); test: LacO/LacI tethering and co-recruitment
T3 sequence: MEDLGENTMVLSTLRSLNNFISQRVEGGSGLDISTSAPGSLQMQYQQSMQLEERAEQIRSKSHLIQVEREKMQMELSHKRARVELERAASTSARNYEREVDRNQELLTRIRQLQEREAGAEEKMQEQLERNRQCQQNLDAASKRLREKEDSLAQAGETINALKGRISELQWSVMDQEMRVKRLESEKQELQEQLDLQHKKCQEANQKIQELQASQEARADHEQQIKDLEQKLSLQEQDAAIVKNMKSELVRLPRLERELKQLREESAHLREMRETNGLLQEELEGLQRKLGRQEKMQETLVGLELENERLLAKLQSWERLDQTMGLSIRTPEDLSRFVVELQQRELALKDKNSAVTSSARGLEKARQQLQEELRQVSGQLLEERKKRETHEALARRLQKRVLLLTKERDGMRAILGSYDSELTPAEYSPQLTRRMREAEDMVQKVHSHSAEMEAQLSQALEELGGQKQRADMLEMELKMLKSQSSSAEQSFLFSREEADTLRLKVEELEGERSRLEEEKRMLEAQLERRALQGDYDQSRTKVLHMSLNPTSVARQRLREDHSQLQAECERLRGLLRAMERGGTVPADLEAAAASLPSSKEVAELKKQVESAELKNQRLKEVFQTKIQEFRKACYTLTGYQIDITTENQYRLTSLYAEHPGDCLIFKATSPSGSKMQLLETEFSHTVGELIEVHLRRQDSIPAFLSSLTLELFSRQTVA

Row | binding (MBP-MAD1^1-92 (human)) | binding (MBP-MAD1^41-62 (human)) | binding [1] | Substance
1 | binds | binds | – | GST-CDK1:Cyclin B1^165-433 complex (from UniProt P06493;P14635)
2 | – | – | binds | Cyclin B1 in U2OS cells (immunofluorescence) (from UniProt P14635 1-433)
3 | – | binds | – | CDK1:Cyclin B1^165-433 complex (from UniProt P06493;P14635)
4 | – | – | binds | Cyclin B1-mCherry (from UniProt P14635 1-433)
